In patent US20140220040A1:
Changes are numbered by the printed parent chain. These are yes or no findings as the source states them, for the method shown. Some binding calls cover weakened binding; strength is not graded here.

Sequences of proteins named here, by UniProt entry; tags and fusion partners are left off. A change or cut given only in a name is not applied to a line headed by its entry.
UniProt O75581: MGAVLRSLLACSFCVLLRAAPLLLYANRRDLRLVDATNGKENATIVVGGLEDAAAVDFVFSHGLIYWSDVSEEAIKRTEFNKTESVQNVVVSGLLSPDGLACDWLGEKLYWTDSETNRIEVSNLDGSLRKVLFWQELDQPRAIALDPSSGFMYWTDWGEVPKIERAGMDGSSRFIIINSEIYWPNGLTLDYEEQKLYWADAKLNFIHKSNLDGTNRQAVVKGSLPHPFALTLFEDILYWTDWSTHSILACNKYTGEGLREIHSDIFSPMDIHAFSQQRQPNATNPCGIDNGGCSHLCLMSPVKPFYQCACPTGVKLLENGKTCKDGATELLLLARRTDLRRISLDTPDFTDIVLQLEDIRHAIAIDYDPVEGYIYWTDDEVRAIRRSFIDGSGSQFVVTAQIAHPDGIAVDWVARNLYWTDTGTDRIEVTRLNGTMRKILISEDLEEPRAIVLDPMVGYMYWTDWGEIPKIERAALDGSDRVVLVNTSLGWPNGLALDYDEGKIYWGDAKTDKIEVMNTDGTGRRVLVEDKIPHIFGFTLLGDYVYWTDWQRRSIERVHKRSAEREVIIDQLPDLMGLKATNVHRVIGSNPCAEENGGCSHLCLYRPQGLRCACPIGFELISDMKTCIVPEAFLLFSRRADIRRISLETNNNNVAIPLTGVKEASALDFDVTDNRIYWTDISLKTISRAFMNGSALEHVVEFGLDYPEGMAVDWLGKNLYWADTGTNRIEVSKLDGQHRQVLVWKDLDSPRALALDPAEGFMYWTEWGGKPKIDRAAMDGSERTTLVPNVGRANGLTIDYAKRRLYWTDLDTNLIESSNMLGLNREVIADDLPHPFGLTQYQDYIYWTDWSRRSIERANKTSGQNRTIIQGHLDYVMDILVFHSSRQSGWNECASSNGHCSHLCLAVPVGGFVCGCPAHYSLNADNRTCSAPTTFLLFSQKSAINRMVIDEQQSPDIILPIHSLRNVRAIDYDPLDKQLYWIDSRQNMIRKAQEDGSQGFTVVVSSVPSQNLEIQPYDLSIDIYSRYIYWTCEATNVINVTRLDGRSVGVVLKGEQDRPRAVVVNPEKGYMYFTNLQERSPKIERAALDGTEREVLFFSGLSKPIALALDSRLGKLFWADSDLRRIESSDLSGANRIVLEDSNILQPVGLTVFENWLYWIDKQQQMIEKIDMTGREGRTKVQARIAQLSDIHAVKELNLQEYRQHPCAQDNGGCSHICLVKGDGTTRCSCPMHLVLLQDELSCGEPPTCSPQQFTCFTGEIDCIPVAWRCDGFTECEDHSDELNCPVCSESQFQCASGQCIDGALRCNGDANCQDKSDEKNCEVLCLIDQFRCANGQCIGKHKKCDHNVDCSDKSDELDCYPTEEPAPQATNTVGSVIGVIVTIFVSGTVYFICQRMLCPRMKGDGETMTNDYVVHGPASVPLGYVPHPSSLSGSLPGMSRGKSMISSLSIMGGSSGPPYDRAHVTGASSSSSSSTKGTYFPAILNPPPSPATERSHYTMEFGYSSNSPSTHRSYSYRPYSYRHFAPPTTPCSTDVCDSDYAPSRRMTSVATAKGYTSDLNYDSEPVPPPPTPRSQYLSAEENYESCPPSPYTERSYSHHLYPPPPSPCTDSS

B1: anti-LRP6 monoclonal antibody 856.6 (antibody, V domains shown)
VH: QVQLQQSGPELVKPGASVRISCKASGYTFTTYYIHWLKQRPGQGLEWIGWIFPGNVNTKYNAKFKGKATLTADKSSSTAYMQLSSLTSEDSAVYFCAREGLQYYFDYWGQGTTLTVSS
VL: QIVLTQSPAIMSASPGEKVTISCSANSSVRFMFWYQQKPGSSPKPLIYRTSNLASGVPARFSGSGSGTSYSLTISSMEAEDAATYYCQQYHSYPWTFGGGTKLEI
B2: anti-LRP6 monoclonal antibody 1213.2 (antibody, V domains shown)
VH: DVNLVESGGGLVKLGGSLKLSCAASGFTFSSFYMSWVRQTPEKRLDLVATINTNGGSTYYSDTVKGRFTISRDNAKNTLYLQMNSLKSEDTALFYCVRQPYYGGTMDYWGQGTSVTVSS
VL: DIVLTQSPATLSVTPGDRVSLSCRASQSINNNLHWYQQKSHESPRLLIKYASQSISGIPSRFSGSGSGTDFTLSINSVETEDFGMYFCQQTNNWPLTFGAGTKLEL
B3: anti-LRP6 monoclonal antibody 1293.11 (antibody, V domains shown)
VH: B1 VH with G100E, T112S, T113A
VL: B1 VL
B4: anti-LRP6 monoclonal antibody 413.1 (antibody, V domains shown)
VH: EIQLQQSGPELVKPGASVKVSCKASGYAFTSYNMYWVKQSHGKGLEWIGYIDPYNGGTDSNQNFKGKATLTVDKSSSTAFMHLNSLTSEDSAVYYCARGGMGLRRDHFDYWGQGTSLTVSS
VL: B1 VL with F31Y, S42F, L46W, I47T, A82V
B5: anti-LRP6 monoclonal antibody 421.1 (antibody, V domains shown)
VH: B1 VH with G100E, T112S
VL: B1 VL with S64C

target: HA-tagged full-length human LRP6 expressed on 293 / 293 T cells (human) (UniProt O75581); assay: FACS on 293 T cells transfected with HA-tagged hLRP6

binding, binds:
B1
B2
B3
B4
B5
